# Laboratory results published in the supplement of paper PMC10849652.
# Sequences of proteins named here, by UniProt entry; tags and fusion partners are left off. A change or cut given only in a name is not applied to a line headed by its entry.
# UniProt Q96HY6: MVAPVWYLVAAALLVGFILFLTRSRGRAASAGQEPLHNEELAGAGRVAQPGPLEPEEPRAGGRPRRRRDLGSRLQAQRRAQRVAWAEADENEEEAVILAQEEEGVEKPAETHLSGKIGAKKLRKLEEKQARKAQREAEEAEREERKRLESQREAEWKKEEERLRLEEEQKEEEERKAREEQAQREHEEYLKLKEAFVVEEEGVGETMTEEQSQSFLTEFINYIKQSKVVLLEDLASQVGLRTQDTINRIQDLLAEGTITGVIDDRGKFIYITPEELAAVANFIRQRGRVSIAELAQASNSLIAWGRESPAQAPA
# UniProt Q92499: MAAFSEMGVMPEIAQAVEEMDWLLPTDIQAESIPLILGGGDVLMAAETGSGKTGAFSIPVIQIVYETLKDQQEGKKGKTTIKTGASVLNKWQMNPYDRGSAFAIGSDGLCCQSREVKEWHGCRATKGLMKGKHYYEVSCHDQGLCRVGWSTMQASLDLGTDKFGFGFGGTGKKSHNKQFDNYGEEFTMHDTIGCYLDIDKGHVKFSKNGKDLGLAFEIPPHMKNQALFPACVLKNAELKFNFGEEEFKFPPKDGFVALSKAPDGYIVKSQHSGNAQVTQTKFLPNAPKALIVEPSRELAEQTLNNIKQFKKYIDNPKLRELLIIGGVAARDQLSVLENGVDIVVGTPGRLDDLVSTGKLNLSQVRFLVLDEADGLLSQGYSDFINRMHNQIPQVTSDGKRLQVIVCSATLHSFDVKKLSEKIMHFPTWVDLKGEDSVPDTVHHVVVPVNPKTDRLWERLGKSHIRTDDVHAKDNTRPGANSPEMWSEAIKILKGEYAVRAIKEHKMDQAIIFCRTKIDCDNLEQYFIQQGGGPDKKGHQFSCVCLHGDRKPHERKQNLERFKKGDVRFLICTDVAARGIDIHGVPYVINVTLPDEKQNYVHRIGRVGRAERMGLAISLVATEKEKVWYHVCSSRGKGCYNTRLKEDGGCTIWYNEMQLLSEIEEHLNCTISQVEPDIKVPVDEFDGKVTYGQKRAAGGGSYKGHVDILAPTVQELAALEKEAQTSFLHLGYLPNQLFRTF
# UniProt Q9NUI1: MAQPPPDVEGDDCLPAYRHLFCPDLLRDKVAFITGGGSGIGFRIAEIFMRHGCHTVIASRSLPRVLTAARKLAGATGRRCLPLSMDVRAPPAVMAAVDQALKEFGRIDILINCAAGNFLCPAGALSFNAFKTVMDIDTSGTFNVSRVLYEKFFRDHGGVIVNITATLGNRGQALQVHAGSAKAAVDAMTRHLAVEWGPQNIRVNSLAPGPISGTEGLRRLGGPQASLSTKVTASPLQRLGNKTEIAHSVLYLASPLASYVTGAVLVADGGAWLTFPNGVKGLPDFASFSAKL
# UniProt Q9BQ39: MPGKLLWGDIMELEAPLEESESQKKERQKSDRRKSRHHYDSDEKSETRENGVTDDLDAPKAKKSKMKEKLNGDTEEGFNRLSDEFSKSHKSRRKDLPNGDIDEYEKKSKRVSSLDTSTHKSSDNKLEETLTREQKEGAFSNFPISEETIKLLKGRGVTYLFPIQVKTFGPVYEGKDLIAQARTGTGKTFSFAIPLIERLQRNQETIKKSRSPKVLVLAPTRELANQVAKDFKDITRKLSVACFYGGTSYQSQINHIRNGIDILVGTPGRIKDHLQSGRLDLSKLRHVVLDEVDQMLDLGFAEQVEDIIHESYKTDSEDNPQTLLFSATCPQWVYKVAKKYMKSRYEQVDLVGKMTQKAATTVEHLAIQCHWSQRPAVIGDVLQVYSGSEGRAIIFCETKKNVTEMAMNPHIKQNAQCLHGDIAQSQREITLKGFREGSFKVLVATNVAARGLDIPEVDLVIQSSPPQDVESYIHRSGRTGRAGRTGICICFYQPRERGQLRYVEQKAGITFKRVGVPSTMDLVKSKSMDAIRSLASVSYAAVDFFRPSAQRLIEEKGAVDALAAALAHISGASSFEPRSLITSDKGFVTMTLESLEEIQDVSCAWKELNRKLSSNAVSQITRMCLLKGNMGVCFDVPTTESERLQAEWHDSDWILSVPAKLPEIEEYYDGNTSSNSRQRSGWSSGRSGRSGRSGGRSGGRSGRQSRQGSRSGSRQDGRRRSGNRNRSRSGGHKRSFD
# UniProt Q9UJU6: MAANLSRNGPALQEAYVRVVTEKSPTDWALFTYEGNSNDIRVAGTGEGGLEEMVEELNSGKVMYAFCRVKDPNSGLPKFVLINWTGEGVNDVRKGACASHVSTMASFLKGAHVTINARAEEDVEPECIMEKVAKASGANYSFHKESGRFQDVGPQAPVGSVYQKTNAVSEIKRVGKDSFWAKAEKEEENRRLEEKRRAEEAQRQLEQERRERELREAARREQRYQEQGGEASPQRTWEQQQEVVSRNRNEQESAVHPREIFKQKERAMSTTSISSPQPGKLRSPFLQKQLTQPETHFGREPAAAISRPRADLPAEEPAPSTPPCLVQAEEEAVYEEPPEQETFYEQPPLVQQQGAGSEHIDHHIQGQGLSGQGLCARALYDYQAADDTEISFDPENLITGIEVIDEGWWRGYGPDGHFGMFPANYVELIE
# UniProt Q96GG9: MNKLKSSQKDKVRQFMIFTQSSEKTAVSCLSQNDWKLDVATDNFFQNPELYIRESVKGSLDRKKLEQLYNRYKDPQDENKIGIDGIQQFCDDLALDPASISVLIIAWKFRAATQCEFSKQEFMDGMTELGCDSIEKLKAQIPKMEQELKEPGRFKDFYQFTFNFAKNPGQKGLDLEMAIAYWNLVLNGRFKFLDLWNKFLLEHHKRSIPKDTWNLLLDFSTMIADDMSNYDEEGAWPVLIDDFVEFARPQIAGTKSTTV
# UniProt Q9BUQ8: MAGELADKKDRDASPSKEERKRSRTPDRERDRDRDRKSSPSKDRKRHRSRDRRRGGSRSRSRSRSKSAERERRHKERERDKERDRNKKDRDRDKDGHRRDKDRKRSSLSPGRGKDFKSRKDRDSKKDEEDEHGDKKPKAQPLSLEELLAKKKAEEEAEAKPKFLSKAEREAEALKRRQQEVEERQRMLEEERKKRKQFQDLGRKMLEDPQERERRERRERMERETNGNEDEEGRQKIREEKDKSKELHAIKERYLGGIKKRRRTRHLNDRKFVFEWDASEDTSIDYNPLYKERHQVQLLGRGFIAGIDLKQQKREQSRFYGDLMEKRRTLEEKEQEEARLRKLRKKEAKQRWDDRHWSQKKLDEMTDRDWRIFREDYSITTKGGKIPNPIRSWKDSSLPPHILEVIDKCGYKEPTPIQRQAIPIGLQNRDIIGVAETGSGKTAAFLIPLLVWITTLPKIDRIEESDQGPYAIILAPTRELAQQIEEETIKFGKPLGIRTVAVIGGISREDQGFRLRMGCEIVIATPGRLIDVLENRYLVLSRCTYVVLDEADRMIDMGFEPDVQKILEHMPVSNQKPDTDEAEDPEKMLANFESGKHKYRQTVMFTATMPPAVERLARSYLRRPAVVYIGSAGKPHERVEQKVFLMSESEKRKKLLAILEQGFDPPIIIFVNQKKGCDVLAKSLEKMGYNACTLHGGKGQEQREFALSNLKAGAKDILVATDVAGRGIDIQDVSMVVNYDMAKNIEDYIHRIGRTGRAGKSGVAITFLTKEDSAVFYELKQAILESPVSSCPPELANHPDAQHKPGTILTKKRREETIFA
# UniProt Q14203, whole entry, looked up: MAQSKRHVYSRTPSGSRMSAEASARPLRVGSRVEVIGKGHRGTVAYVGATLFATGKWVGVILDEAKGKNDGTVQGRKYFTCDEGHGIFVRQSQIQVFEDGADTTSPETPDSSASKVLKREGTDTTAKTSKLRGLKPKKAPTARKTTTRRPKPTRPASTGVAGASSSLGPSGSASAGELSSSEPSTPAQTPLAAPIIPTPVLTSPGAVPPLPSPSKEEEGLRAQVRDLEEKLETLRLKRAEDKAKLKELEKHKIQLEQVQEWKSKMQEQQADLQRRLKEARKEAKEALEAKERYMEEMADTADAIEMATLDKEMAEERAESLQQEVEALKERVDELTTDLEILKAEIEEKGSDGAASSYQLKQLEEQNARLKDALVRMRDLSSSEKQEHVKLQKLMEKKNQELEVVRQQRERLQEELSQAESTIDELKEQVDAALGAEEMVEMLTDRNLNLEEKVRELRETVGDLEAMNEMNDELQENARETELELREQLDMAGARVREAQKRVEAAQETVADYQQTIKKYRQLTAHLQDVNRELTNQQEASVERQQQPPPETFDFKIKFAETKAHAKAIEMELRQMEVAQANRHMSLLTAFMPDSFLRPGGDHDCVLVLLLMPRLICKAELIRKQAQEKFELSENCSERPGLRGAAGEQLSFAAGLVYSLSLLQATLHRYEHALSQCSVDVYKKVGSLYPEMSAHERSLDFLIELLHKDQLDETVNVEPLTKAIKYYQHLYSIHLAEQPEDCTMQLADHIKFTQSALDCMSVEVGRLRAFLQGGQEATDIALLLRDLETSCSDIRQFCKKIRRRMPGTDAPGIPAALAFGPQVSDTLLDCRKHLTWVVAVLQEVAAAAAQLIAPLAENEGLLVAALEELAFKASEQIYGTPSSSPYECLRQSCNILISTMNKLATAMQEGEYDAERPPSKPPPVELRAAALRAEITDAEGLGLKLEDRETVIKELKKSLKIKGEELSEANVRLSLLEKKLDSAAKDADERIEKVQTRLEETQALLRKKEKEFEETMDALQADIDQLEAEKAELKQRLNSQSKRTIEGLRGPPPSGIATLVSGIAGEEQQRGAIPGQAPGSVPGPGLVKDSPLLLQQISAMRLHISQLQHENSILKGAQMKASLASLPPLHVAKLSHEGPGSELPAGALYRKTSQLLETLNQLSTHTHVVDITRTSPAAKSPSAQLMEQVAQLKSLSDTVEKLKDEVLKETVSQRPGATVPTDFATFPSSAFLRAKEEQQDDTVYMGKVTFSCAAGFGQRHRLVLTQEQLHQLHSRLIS
# UniProt O75064: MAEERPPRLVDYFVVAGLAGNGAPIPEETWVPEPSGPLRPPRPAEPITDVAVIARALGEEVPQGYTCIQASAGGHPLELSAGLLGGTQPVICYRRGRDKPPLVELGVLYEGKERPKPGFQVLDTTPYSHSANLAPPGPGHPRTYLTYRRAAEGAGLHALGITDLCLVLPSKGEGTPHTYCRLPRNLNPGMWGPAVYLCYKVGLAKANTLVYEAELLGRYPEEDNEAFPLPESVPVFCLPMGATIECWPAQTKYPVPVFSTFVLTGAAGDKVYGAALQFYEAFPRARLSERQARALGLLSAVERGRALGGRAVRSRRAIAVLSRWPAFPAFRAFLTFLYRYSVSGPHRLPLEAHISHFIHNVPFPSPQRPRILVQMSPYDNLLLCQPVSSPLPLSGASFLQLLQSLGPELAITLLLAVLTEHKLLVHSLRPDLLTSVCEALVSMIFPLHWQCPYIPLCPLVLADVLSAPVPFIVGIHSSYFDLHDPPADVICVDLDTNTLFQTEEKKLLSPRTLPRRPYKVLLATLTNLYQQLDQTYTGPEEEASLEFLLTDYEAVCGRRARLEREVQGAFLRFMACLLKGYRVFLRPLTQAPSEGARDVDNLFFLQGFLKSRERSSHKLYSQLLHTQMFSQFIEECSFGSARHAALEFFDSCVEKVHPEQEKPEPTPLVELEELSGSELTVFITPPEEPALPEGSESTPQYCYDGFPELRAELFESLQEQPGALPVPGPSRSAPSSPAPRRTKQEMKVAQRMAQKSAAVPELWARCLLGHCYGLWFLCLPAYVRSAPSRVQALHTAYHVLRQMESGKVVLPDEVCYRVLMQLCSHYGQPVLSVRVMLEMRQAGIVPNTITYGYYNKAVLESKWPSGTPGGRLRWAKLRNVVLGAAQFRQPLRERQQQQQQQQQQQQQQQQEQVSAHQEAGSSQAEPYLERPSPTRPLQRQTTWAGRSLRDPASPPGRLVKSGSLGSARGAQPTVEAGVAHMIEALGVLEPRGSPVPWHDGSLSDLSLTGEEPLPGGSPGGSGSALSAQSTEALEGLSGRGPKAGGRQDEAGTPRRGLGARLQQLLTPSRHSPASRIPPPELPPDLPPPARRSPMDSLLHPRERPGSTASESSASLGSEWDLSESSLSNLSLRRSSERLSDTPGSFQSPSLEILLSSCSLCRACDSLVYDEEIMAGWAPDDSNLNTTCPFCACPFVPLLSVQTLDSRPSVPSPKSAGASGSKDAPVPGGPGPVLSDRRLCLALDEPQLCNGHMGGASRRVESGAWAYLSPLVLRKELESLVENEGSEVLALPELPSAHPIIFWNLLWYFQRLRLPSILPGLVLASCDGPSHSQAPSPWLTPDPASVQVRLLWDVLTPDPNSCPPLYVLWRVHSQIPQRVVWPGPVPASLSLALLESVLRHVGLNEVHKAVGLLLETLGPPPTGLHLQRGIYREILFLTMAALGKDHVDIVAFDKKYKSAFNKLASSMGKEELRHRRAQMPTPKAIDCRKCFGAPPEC
# UniProt O75935, whole entry, looked up: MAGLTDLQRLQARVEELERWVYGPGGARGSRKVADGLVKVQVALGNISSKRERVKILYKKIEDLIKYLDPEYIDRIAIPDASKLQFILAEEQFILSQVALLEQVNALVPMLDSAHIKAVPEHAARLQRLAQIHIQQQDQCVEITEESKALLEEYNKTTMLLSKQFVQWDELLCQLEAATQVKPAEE
# Some of the results follow.
# Key:
# Test in all cases: log2 fold change, soluble protein after heating vs DMSO (PISA); higher = thermal stabilisation; K562 lysate, 10 uM; active = over 0.2 and 3.5 SD of the protein, either way, in both replicates (recomputed)
# ibrutinib = compound: C=CC(=O)N1CCC[C@@H](n2nc(-c3ccc(Oc4ccccc4)cc3)c3c(N)ncnc32)C1 [ibrutinib]
# In short: (§1)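 The values are log-two fold changes in thermal stability compared with solvent controls and come from duplicates. They were obtained by TMTpro 16plex LC-MS/MS, with channel sums equalised, on the supernatant after 21,000xg for 90 min. That supernatant came from crude K562 extract at 1 mg/mL protein treated with 10 μM compound for 30 min, heated for 3 min across 48°C-58°C, pooled and brought to 0.5% NP-40 at 4°C.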
# [1] = compound: CC(=O)c1cnc2ccc(-c3cc(Cl)c(O)c(Cl)c3)nc2c1N[C@H]1CC[C@H](CN(C)C)CC1
# In short: as §1
# ralimetinib = compound: CC(C)(C)Cn1c(N)nc2ccc(-c3[nH]c(C(C)(C)C)nc3-c3ccc(F)cc3)nc21 [ralimetinib]
# In short: as §1
# [2] = compound: CC(C)(O)CC(=O)NCCn1ccc2ncnc(Nc3ccc(Oc4cccc(C(F)(F)F)c4)c(Cl)c3)c21
# In short: as §1
# [3] = compound: CC(C)C1=C2N=C(C=C(N2N=C1)NCC3=CC=CC=C3)NCCCCCCN
# In short: as §1
# [4] = compound: CC1=C(C(CC(=O)N1)C2=CC=C(C=C2)C(F)(F)F)C(=O)NC3=C(C=C4C(=C3)C=NN4)F
# In short: as §1
# [5] = compound: CC1=C(C2=C(C=C1)C(=O)C3=CC=CC=C3N2CCCN)C
# In short: as §1
# [6] = compound: CC1=C(C=C(C=C1)NC(=O)C2=CC(=CC=C2)C(C)(C)C#N)NC3=CC4=C(C=C3)N=CN(C4=O)C
# In short: as §1
# [7] = compound: CC1=C(C=C(C=C1)NC(=O)C2=CC(=CC=C2)N(C)C)NC(=O)C3=CC=C(C=C3)O
# In short: as §1
# [8] = compound: CC1=CC=C(C=C1)SC2=C3C=C(SC3=CN=C2)C(=O)N
# In short: as §1
Target,log2 fold change (ibrutinib),log2 fold change [1],log2 fold change (ralimetinib),log2 fold change [2],log2 fold change [3],log2 fold change [4],log2 fold change [5],log2 fold change [6],log2 fold change [7],log2 fold change [8]
DCAF8 (UniProt Q5TAQ9),inactive: 0.01,inactive: -0.025,inactive: -0.08,inactive: 0.411,inactive: -0.017,inactive: -0.019,inactive: -0.049,inactive: 0.01,inactive: 0.008,inactive: -0.017
CZIB (UniProt Q9NWV4),inactive: 0.002,inactive: 0.001,inactive: -0.003,inactive: 0.026,inactive: -0.002,inactive: 0.001,inactive: 0.05,inactive: -0.008,inactive: 0.002,inactive: -0.053
DCAF6 isoform 3 (UniProt Q58WW2),inactive: 0.046,inactive: 0.008,inactive: 0.031,inactive: -0.008,inactive: -0.005,inactive: 0.012,inactive: 0.015,inactive: -0.022,inactive: 0.012,inactive: -0.008
DCTPP1 (UniProt Q9H773),inactive: 0.111,inactive: -0.028,inactive: -0.002,inactive: -0.053,inactive: -0.043,inactive: -0.027,inactive: -0.034,inactive: 0.041,inactive: 0.005,inactive: 0.035
DCAF11 (UniProt Q8TEB1),inactive: 0.101,inactive: -0.015,inactive: -0.009,inactive: -0.02,inactive: 0.037,inactive: 0.035,inactive: -0.021,inactive: 0.019,inactive: -0.024,inactive: 0.033
DDRGK1 (UniProt Q96HY6),inactive: -0.018,inactive: 0.053,inactive: 0.022,inactive: -0.048,inactive: 0.026,inactive: 0.037,inactive: -0.008,inactive: 0.03,inactive: 0.004,inactive: 0.002
DFFA isoform 2 (UniProt O00273),inactive: 0.108,inactive: 0.115,inactive: 0.041,inactive: 0.114,inactive: 0.095,inactive: -0.093,inactive: -0.161,inactive: -0.041,inactive: -0.056,inactive: -0.009
CYP51A1 (UniProt Q16850),active: 0.601,inactive: -0.025,inactive: -0.025,inactive: 0.101,inactive: 0.038,inactive: -0.017,inactive: -0.031,inactive: -0.093,inactive: 0.014,inactive: -0.099
DDX1 (UniProt Q92499),inactive: 0.009,inactive: -0.004,inactive: -0.001,inactive: 0.016,inactive: 0.022,inactive: -0.009,inactive: -0.025,inactive: 0.039,inactive: -0.008,inactive: 0.035
DECR2 (UniProt Q9NUI1),inactive: 0.018,inactive: -0.208,inactive: -0.046,inactive: 0.045,inactive: -0.179,inactive: -0.062,inactive: -0.013,inactive: 0.061,inactive: -0.067,inactive: -0.152
DCAF1 (UniProt Q9Y4B6),inactive: 0.016,inactive: -0.037,inactive: 0.022,inactive: -0.034,inactive: 0.001,inactive: 0.02,inactive: -0.039,inactive: 0.01,inactive: -0.003,inactive: -0.035
DCTN4 (UniProt Q9UJW0),inactive: 0.051,inactive: 0.008,inactive: 0.023,inactive: -0.038,inactive: -0.007,inactive: -0.009,inactive: -0.037,inactive: 0.022,inactive: -0.024,inactive: -0.012
DCUN1D5 (UniProt Q9BTE7),inactive: -0.129,inactive: -0.093,inactive: 0.008,inactive: 0.01,inactive: -0.028,inactive: -0.002,inactive: 0.01,inactive: 0.022,inactive: 0.077,inactive: 0.043
DARS (UniProt P14868),inactive: 0.009,inactive: 0.021,inactive: 0.049,inactive: 0.04,inactive: 0.001,inactive: -0.003,inactive: 0.027,inactive: -0.019,inactive: 0.026,inactive: 0.053
DERL2 (UniProt Q9GZP9),inactive: 0.108,inactive: -0.009,inactive: -0.018,inactive: -0.114,inactive: -0.036,inactive: -0.073,inactive: -0.096,inactive: -0.036,inactive: 0.023,inactive: -0.126
DEGS1 (UniProt O15121),inactive: 0.065,inactive: -0.046,inactive: 0.098,inactive: -0.018,inactive: 0.043,inactive: -0.008,inactive: -0.108,inactive: 0.071,inactive: -0.092,inactive: -0.03
DENND10 (UniProt Q8TCE6),inactive: -0.027,inactive: 0.019,inactive: -0.022,inactive: -0.066,inactive: -0.006,inactive: -0.024,inactive: 0.027,inactive: 0.095,inactive: -0.047,inactive: -0.021
DDX50 (UniProt Q9BQ39),inactive: 0.059,inactive: 0.004,inactive: 0.02,inactive: -0.007,inactive: 0.029,inactive: -0.01,inactive: -0.036,inactive: -0.032,inactive: 0.022,inactive: 0.015
DERPC (UniProt P0CG12),inactive: 0.146,inactive: -0.033,inactive: -0.029,inactive: -0.008,inactive: 0.008,inactive: -0.02,inactive: -0.068,inactive: -0.351,inactive: 0.023,inactive: 0.059
DAXX (UniProt Q9UER7),inactive: -0.026,inactive: -0.086,inactive: -0.074,inactive: -0.04,inactive: 0.016,inactive: -0.047,inactive: -0.081,inactive: 0.107,inactive: -0.031,inactive: -0.067
DBNL isoform 3 (UniProt Q9UJU6),inactive: -0.015,inactive: -0.011,inactive: -0.014,inactive: -0.005,inactive: -0.029,inactive: -0.012,inactive: 0.006,inactive: -0.018,inactive: 0.002,inactive: -0.013
DCUN1D1 (UniProt Q96GG9),inactive: 0.004,inactive: -0.001,inactive: 0.009,inactive: 0.066,inactive: -0.006,inactive: -0.008,inactive: 0.054,inactive: 0.011,inactive: -0.002,inactive: -0.009
DDX23 (UniProt Q9BUQ8),inactive: 0.012,inactive: -0.005,inactive: 0.039,inactive: 0.009,inactive: 0.034,inactive: -0.003,inactive: 0.002,inactive: -0.016,inactive: 0.027,inactive: 0.005
DCTN1 (UniProt Q14203),inactive: -0.005,inactive: 0.01,inactive: 0.013,inactive: -0.02,inactive: -0.006,inactive: 0.001,inactive: 0.011,inactive: -0.013,inactive: 0.009,inactive: 0.011
DFFA (UniProt O00273),inactive: 0.04,inactive: -0.001,inactive: 0.012,inactive: 0.046,inactive: -0.011,inactive: -0.035,inactive: 0.027,inactive: 0.018,inactive: -0.028,inactive: -0.03
DENND4B (UniProt O75064),inactive: -0.025,inactive: -0.036,inactive: -0.012,inactive: -0.12,inactive: 0.021,inactive: 0.053,inactive: 0.101,inactive: -0.014,inactive: -0.044,inactive: -0.079
DEUP1 (UniProt Q05D60),inactive: 0.145,inactive: -0.35,inactive: -0.423,inactive: -0.482,inactive: 0.043,inactive: 0.006,inactive: -0.255,inactive: 0.034,inactive: 0.116,inactive: -0.32
DCP2 (UniProt Q8IU60),inactive: -0.005,inactive: -0.005,inactive: 0.067,inactive: 0.003,inactive: 0.006,inactive: 0.021,inactive: 0.034,inactive: -0.043,inactive: 0.081,inactive: -0.002
DCTN3 (UniProt O75935),inactive: 0.026,inactive: 0.008,inactive: -0.012,inactive: 0.025,inactive: -0.017,inactive: -0.077,inactive: 0.007,inactive: -0.02,inactive: -0.008,inactive: 0.007
DDX59 (UniProt Q5T1V6),inactive: -0.008,inactive: 0.013,inactive: 0.064,inactive: 0.018,inactive: 0.068,inactive: 0.026,inactive: -0.005,inactive: -0.01,inactive: -0.004,inactive: -0.011

# Reformatted tab-delimited: part of the list above
Target	log2 fold change (ibrutinib)	log2 fold change [1]	log2 fold change (ralimetinib)	log2 fold change [2]	log2 fold change [3]	log2 fold change [4]	log2 fold change [5]	log2 fold change [6]	log2 fold change [7]	log2 fold change [8]
CZIB (UniProt Q9NWV4)	inactive: 0.002	inactive: 0.001	inactive: -0.003	inactive: 0.026	inactive: -0.002	inactive: 0.001	inactive: 0.05	inactive: -0.008	inactive: 0.002	inactive: -0.053
DCAF6 isoform 3 (UniProt Q58WW2)	inactive: 0.046	inactive: 0.008	inactive: 0.031	inactive: -0.008	inactive: -0.005	inactive: 0.012	inactive: 0.015	inactive: -0.022	inactive: 0.012	inactive: -0.008
